In PMC5089992:
Results are given in words; binding and its absence hold for the method and conditions named. In cells and extracts the contact can be indirect. Some results given as binding are weak or reduced against the parent protein; the word gives no strength.

Amino acid sequences for entries named in this document (tags omitted). A change or cut given only in a name is not applied to a line headed by its entry. Residues count along the entry.
UniProt Q13464: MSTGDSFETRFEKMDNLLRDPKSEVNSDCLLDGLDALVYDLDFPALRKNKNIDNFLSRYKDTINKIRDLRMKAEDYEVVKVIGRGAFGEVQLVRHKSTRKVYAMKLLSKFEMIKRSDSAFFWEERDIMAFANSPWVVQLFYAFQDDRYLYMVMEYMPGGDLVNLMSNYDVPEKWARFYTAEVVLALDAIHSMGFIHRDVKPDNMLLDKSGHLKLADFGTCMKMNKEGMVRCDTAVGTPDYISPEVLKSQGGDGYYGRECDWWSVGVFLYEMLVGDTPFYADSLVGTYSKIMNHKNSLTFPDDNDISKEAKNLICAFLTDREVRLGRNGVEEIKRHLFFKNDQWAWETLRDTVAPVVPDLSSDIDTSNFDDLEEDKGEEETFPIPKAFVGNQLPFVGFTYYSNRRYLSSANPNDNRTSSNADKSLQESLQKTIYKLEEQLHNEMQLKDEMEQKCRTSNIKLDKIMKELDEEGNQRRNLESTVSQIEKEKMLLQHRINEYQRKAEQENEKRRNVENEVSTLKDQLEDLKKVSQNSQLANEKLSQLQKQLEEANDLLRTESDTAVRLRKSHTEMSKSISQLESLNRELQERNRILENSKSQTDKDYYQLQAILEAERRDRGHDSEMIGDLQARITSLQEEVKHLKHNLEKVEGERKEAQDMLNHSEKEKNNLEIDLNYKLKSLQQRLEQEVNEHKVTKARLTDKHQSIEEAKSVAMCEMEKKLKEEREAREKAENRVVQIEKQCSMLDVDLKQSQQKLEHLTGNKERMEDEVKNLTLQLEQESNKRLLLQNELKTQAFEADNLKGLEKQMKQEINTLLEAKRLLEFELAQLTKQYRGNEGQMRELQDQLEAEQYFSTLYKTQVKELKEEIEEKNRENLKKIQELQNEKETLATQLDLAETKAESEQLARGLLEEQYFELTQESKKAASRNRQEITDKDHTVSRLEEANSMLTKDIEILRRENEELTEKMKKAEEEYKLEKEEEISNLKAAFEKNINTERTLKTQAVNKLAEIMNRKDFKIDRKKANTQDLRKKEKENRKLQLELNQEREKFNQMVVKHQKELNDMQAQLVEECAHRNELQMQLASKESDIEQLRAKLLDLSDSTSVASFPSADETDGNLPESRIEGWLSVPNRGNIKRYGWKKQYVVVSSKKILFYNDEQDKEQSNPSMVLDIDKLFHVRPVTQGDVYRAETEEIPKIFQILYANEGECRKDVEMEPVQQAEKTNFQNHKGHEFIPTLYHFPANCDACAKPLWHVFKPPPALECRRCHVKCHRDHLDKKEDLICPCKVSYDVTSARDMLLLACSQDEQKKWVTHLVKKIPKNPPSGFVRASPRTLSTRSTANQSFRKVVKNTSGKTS
constitutively active ROCK1 fragment (pCAG-myc-ROCK1^myc-727 Δ3, ROCK1 CA): residues 1-727 of Q13464
UniProt Q14457: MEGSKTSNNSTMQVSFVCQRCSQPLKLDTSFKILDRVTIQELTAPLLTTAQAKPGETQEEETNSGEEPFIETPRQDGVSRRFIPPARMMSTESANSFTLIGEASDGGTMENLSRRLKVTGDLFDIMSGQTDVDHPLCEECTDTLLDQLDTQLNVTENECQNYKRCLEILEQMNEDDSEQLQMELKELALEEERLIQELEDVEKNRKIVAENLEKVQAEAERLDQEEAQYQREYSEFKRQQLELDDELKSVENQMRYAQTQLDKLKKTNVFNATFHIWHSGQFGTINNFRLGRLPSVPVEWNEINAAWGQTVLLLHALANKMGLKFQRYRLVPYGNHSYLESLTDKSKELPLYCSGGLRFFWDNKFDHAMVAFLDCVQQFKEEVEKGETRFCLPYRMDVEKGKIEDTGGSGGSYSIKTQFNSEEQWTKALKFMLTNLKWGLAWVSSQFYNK

Assays:
[1] = target: constitutively active ROCK1 fragment (pCAG-myc-ROCK1^myc-727 Δ3, ROCK1 CA) (human) (UniProt Q13464); assay: co-IP; HEK293(T) cells transfected with ROCK1 CA plasmid or pcDNA, lysed 48 h later in 1% RIPA lysis buffer; precipitation with anti-ROCK1 and anti-myc antibody (legend: ROCK1 crosslinked agarose), protein A + G agarose beads 4 h at 4°C, four washes with lysis buffer; western blot for anti-Myc and anti-Beclin1
[2] = target: Rho-associated coiled-coil kinase 1 (ROCK1), endogenous (human (endogenous in HEK293T)) (UniProt Q13464); assay: as above

Beclin1, endogenous (from UniProt Q14457 1-450)
binding [1]: binds | binding [2]: binds
